Test results reported in US20240252671A1 (priority 2021, published 2024).

Test: peptide synthesis
Conditions: late stage modification step, TFA salt

**Q.** With “(2S)-2-[2-(2-aminoacetamido)acetamido]-N-([[(2-[2-chloro-4-[([[2-(2,6-dioxopiperidin-3-yl)-1-oxo-3H-isoindol-5-yl]methyl]carbamoyl)amino]phenyl]ethoxy)methyl]-carbamoyl]methyl)-3-phenylpropanamide; trifluoroacetic acid” as the substance, how does the step yield read?
**A.** Its step yield is 79%.
